Data taken from the supplement of paper PMC6411743.
± gives the standard deviation of the averaged measurements. The entries are a selection whose mix differs from that of the whole data set.

Amino acid sequences for entries named in this document (tags omitted). A change or cut given only in a name is not applied to a line headed by its entry.
UniProt Q9UK76: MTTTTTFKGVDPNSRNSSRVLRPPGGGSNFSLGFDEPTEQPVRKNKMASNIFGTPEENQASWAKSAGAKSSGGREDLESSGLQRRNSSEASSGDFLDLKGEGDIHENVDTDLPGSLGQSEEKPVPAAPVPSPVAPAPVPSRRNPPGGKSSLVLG
UniProt Q9UL26: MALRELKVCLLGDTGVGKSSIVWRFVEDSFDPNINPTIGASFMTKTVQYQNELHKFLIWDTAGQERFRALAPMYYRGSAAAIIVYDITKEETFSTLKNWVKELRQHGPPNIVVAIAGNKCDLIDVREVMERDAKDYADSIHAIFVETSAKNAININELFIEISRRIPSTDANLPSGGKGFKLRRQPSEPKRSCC
UniProt Q9UMN6, whole entry: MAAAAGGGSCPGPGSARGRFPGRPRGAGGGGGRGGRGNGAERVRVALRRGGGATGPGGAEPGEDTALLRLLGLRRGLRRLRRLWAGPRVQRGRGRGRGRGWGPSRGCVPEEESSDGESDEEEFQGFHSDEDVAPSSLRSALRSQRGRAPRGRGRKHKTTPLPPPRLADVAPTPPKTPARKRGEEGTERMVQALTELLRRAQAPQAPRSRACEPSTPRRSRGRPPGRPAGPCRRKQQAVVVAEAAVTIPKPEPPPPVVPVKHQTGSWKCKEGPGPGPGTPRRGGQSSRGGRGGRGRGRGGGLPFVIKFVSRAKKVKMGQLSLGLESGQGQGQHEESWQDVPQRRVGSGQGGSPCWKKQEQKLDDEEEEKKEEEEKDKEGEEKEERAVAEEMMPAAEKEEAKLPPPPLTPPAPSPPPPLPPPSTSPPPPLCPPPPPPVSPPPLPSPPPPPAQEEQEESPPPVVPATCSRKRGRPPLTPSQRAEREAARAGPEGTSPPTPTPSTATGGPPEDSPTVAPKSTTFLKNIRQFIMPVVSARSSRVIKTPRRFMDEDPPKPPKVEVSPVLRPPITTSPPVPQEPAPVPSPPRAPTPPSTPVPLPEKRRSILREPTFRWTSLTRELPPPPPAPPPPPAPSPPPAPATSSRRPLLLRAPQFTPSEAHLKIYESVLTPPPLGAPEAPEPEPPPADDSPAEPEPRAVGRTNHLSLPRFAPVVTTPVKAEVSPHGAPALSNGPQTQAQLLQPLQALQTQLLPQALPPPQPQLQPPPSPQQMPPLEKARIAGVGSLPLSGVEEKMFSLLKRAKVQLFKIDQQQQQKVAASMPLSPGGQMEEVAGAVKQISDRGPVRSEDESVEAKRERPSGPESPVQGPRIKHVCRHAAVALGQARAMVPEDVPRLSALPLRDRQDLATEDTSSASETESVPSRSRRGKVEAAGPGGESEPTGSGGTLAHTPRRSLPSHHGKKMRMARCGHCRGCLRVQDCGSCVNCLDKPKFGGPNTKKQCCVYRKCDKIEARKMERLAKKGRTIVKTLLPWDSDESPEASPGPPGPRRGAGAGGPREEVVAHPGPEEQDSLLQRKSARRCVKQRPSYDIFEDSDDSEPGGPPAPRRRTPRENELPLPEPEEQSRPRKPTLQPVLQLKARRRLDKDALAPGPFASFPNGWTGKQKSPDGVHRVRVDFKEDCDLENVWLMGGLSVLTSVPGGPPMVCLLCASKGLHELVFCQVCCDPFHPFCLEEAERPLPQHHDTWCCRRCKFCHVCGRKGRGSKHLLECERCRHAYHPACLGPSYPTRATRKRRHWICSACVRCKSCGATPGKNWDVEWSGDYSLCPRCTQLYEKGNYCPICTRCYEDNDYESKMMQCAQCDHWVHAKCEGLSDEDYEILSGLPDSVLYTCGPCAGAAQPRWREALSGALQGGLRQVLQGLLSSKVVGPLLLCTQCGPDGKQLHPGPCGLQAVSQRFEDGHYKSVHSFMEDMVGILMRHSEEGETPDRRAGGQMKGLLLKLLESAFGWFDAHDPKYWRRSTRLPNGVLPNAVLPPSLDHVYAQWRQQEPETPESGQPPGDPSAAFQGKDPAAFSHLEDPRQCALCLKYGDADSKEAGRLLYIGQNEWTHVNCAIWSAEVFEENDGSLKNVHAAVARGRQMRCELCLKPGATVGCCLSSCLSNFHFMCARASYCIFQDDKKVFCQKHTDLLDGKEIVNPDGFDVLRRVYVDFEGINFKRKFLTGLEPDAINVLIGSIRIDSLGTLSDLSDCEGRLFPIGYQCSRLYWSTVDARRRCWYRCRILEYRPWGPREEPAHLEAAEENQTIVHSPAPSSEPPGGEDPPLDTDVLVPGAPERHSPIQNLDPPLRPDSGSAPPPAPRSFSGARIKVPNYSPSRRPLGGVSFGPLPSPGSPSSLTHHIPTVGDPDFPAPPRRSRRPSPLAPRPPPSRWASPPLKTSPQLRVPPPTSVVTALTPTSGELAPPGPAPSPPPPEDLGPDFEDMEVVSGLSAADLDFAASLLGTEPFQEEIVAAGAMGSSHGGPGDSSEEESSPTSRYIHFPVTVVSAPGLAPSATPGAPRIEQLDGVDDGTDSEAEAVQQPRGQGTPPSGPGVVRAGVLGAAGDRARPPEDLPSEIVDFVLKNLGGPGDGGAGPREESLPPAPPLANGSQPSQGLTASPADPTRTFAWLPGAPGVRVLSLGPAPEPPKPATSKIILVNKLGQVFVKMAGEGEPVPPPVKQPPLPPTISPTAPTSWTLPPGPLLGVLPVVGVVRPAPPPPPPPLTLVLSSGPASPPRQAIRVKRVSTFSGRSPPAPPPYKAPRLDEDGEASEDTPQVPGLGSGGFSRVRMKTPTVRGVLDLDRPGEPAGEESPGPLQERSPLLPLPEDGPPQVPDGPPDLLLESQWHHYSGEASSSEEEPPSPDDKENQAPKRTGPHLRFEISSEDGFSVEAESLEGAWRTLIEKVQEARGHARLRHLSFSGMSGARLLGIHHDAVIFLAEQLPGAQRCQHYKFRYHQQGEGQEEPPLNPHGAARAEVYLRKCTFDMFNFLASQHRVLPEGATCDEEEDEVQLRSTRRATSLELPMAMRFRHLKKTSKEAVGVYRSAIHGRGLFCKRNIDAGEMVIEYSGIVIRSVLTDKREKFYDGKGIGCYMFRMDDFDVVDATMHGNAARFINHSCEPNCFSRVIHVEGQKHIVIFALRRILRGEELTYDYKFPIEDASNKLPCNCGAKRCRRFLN
UniProt Q9ULR0: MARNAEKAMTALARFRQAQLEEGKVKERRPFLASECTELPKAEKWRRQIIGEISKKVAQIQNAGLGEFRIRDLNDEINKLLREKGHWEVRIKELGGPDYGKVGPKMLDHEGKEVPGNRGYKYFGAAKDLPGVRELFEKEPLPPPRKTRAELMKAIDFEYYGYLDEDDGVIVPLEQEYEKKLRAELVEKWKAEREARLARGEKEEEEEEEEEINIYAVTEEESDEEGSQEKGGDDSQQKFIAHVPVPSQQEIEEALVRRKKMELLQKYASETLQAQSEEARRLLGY
UniProt Q9UKG1: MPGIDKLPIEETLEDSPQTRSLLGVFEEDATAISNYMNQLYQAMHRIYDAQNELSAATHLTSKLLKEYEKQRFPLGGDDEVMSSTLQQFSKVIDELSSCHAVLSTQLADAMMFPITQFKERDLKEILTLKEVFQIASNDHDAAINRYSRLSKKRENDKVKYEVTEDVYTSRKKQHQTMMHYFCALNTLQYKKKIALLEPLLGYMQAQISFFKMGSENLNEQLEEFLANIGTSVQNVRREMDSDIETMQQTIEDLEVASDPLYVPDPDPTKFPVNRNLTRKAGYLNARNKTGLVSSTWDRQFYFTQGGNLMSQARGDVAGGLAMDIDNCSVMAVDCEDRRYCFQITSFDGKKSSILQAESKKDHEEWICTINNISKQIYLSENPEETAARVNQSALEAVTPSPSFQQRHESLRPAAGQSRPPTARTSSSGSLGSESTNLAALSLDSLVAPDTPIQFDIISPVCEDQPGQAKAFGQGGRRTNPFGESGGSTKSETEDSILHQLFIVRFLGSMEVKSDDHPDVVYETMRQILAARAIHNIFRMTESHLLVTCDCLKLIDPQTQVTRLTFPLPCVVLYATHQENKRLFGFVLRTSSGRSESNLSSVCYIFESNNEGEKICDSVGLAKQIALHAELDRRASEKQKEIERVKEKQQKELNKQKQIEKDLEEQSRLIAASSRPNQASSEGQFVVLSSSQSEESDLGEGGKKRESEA
UniProt Q9Y250: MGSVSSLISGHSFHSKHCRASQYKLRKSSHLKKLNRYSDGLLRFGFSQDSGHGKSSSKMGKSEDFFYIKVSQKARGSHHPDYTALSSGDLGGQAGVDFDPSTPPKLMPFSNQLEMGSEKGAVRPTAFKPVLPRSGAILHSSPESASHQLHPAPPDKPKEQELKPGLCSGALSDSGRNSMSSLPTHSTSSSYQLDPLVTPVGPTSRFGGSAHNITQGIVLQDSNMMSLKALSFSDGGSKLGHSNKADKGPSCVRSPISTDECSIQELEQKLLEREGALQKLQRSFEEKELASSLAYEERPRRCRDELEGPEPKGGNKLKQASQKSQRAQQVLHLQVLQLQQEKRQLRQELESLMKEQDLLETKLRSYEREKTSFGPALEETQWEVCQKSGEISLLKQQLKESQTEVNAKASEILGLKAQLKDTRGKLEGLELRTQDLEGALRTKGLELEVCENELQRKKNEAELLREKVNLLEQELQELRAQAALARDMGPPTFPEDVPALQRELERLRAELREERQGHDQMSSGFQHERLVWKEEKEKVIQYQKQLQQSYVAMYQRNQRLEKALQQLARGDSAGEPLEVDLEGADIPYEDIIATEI
UniProt Q9UHD1: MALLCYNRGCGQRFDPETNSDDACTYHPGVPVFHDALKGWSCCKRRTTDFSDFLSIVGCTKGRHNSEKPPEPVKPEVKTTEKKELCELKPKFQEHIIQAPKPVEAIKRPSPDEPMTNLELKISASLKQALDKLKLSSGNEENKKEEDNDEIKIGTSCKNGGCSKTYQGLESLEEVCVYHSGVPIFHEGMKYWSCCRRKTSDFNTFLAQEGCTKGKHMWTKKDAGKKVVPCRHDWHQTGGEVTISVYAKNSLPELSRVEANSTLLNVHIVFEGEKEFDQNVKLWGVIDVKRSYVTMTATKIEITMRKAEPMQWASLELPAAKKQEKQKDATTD
UniProt Q9UHB9: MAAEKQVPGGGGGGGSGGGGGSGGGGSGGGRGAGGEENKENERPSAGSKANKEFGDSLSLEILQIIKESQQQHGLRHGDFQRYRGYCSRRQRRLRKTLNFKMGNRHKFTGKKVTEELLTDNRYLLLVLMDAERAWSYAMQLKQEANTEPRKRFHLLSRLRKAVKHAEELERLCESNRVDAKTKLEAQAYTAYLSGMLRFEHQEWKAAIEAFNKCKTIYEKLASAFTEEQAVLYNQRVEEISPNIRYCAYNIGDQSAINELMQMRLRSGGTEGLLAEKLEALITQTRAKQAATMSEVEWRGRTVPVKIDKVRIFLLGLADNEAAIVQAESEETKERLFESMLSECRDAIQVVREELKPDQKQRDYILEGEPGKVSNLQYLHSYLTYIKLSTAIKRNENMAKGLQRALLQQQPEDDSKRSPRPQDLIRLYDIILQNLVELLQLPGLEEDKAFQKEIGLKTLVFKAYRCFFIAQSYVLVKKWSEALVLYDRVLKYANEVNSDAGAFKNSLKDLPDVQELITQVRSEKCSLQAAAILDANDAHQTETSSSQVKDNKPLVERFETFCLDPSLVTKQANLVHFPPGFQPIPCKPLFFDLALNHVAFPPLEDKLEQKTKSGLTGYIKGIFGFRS
UniProt Q9UDR5: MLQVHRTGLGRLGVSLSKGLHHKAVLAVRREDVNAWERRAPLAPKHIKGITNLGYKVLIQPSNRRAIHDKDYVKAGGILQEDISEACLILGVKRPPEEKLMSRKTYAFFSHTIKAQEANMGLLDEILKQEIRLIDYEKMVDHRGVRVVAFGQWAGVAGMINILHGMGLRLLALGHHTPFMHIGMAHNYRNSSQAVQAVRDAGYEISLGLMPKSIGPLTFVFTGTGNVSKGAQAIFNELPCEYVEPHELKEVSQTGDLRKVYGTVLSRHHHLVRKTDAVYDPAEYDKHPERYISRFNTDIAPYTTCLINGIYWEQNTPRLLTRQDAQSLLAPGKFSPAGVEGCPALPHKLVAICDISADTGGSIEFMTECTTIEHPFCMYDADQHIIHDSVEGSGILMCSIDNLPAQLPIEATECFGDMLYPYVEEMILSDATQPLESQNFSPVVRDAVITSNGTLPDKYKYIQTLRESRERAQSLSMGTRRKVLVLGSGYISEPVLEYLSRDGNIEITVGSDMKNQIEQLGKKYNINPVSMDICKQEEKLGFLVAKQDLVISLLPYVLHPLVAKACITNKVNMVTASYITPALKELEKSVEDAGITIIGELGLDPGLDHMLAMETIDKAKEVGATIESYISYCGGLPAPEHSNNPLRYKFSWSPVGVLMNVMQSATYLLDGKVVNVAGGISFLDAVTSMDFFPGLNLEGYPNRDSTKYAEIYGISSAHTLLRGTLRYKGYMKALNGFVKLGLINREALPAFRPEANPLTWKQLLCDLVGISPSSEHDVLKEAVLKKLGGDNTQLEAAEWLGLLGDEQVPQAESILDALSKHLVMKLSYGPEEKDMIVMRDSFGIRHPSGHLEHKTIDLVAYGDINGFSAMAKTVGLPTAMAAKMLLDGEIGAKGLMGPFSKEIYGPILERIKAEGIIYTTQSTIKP

compound: Nc1ncnc2c1ncn2[C@@H]1O[C@H](COP(=O)(O)OP(=O)(O)OP(=O)(O)O)[C@@H](O)[C@H]1O [adenosine triphosphate]; experiment: NP40-soluble protein abundance relative to vehicle (solubility fold change) (ratio); higher = more soluble protein in presence of ATP; details: concentration: 10mM
Method in brief: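 Crude Jurkat lysate, prepared by Dounce homogenisation, was exposed to eight concentrations from 0.1 to 10 mM for 10 min at room temperature and then 3 min at 37 °C. Solubilisation used 0.8% NP40 with benzonase for 60 min at 4 °C, followed by ultracentrifugation and TMT labelling of the supernatant for LC-MS/MS. After vsn normalisation of intensities, each value is the fold change against the detergent-processed vehicle within each replicate, across three independent experiments.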

| Target | NP40-soluble protein abundance |
| --- | --- |
| GRHPR (UniProt Q9UBQ7) | 0.965 ± 0.052 |
| PLAA (UniProt Q9Y263) | 0.956 ± 0.032 |
| UniProt Q9UGU0 and related entries | 1.44 ± 0.086 |
| UniProt Q9UI30 | 0.954 ± 0.09 |
| UniProt Q9Y252 | 1.16 ± 0.055 |
| UniProt Q9UNZ2 and related entries | 0.929 ± 0.011 |
| UniProt Q9ULJ3 | 0.903 ± 0.022 |
| UniProt Q9UBD5 and related entries | 1.08 ± 0.061 |
| DNAJB4 (UniProt Q9UDY4) | 0.86 ± 0.037 |
| VDAC3 (UniProt Q9Y277) | 0.929 ± 0.017 |
| UniProt Q9UK76 | 0.843 ± 0.061 |
| USP24 (UniProt Q9UPU5) | 0.971 ± 0.027 |
| UniProt Q9UNL4 and related entries | 1.37 ± 0.2 |
| HMGXB4 (UniProt Q9UGU5) | 1.163 ± 0.0075 |
| ZNF148 (UniProt Q9UQR1) | 0.95 ± 0.0098 |
| RAB22A (UniProt Q9UL26) | 0.908 ± 0.039 |
| C19orf53 (UniProt Q9UNZ5) | 1.16 ± 0.32 |
| KMT2B (UniProt Q9UMN6) | 1.03 ± 0.032 |
| ARPP21 (UniProt Q9UBL0) | 0.933 ± 0.045 |

| Target | NP40-soluble protein abundance |
| --- | --- |
| CGGBP1 (UniProt Q9UFW8) | 1.03 ± 0.077 |
| UniProt Q9ULR0 and related entries | 0.952 ± 0.068 |
| EXTL2 (UniProt Q9UBQ6) | 1.01 ± 0.016 |
| APPL1 (UniProt Q9UKG1) | 1.01 ± 0.076 |
| UniProt Q9Y250 and related entries | 1.06 ± 0.083 |
| UniProt Q9UKX7 and related entries | 1.08 ± 0.021 |
| RUVBL2 (UniProt Q9Y230) | 1.13 ± 0.045 |
| ZNFX1 (UniProt Q9P2E3) | 1.01 ± 0.048 |
| CHORDC1 (UniProt Q9UHD1) | 0.951 ± 0.05 |
| MTMR6 (UniProt Q9Y217) | 0.95 ± 0.038 |
| DPP7 (UniProt Q9UHL4) | 0.959 ± 0.047 |
| SRP68 (UniProt Q9UHB9) | 1.08 ± 0.023 |
| AKAP11 (UniProt Q9UKA4) | 0.943 ± 0.051 |
| NOL7 (UniProt Q9UMY1) | 0.976 ± 0.069 |
| UniProt Q9ULL5-3 | 1.04 ± 0.086 |
| AASS (UniProt Q9UDR5) | 0.993 ± 0.021 |
| CFDP1 (UniProt Q9UEE9) | 0.848 ± 0.0095 |
| ZMAT5 (UniProt Q9UDW3) | 1.49 ± 0.32 |
